Where two headings read alike, the source gives them in different places.
Details: for Display Speed Rglay: reflectance after -1.5 V for 0.5 sec, lower = faster

NC(=O)c1ccccc1-c1nnc(S)[nH]1 [Compound 1-8]
Display Speed Rglay (γBL, silver tosylate): 6%

Sc1nc2ccccc2[nH]1 [Comp. 1, 2-mercaptobenzimidazole]
Display Speed Rglay (DMSO, AgI): 40% | display speed (in words) (dimethylsulfoxide as electrolyte solvent): delayed

NS(=O)(=O)c1ccccc1-c1nnc(S)[nH]1 [Compound 1-7]
Display Speed Rglay (γBL, silver tosylate): 2%
